The text below walks through data of the supplement of paper PMC10849652.

The chains behind the UniProt entries cited, without tags or fusion partners. Where a name states a change or a piece, a line headed by the entry shows the natural chain unless it says otherwise.
UniProt Q96GJ1: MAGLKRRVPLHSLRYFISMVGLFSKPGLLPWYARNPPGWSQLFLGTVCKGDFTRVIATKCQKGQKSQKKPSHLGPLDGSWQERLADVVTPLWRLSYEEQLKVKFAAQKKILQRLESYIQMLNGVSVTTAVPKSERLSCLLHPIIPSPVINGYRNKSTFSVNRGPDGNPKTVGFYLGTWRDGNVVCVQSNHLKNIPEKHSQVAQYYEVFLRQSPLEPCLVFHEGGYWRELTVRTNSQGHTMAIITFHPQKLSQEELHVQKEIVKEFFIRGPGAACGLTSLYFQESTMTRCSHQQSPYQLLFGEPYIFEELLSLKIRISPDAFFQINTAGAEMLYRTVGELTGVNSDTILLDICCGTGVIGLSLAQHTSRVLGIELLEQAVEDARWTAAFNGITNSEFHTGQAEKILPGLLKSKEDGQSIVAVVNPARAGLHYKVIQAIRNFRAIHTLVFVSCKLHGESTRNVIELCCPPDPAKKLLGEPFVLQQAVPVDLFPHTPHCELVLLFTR
UniProt Q9H0U9: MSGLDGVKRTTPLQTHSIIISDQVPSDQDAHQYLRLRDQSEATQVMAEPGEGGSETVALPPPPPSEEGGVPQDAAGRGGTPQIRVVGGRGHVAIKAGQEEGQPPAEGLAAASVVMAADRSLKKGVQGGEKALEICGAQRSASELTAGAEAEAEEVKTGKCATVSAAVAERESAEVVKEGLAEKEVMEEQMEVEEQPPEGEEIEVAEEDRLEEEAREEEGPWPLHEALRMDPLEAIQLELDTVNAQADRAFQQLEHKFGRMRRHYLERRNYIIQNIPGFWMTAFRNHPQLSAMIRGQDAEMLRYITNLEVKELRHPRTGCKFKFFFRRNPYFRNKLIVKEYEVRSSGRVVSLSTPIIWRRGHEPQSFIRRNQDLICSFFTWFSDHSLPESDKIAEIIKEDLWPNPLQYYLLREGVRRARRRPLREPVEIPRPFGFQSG
UniProt Q96Q11: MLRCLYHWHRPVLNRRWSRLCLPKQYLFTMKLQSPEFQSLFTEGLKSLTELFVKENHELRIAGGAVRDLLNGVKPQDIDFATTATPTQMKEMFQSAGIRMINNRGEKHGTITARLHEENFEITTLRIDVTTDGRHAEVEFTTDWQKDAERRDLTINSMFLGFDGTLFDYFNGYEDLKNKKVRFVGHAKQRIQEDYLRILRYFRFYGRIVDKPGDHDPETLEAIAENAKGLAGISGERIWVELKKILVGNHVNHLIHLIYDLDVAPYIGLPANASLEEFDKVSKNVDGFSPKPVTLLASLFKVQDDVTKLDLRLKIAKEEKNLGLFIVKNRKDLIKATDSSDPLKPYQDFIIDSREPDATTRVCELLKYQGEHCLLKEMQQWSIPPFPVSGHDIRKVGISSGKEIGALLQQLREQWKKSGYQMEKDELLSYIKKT
UniProt Q15642: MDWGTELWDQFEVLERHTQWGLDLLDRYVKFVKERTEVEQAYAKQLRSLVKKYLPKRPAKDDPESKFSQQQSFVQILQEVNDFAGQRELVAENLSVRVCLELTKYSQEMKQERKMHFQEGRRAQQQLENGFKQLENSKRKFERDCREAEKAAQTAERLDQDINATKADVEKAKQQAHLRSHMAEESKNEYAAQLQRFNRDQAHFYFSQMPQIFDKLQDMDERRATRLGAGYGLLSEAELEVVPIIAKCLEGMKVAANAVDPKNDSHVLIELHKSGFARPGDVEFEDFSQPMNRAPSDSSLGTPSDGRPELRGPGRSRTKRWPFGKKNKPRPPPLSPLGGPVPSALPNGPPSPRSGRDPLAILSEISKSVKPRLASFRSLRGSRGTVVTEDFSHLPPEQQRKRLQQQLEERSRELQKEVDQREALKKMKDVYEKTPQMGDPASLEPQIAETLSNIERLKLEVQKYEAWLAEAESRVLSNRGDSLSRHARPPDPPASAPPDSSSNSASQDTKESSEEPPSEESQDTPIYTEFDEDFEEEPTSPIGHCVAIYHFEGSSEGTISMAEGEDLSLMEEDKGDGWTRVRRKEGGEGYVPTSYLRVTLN
UniProt O43715: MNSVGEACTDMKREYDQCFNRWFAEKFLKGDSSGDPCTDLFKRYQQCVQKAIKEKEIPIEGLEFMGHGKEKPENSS
UniProt Q86TN4: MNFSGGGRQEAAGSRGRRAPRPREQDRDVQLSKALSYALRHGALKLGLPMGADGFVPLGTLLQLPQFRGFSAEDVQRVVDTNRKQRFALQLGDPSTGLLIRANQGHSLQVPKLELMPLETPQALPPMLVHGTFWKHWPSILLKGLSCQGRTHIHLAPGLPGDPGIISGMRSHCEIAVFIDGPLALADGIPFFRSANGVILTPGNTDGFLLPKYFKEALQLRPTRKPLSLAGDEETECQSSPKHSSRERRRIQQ
UniProt Q5BVD1: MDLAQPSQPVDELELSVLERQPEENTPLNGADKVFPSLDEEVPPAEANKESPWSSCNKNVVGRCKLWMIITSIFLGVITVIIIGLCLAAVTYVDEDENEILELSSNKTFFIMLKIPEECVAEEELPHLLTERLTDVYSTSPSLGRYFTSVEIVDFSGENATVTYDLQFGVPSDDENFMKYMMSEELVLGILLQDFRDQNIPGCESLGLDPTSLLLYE
UniProt Q13114: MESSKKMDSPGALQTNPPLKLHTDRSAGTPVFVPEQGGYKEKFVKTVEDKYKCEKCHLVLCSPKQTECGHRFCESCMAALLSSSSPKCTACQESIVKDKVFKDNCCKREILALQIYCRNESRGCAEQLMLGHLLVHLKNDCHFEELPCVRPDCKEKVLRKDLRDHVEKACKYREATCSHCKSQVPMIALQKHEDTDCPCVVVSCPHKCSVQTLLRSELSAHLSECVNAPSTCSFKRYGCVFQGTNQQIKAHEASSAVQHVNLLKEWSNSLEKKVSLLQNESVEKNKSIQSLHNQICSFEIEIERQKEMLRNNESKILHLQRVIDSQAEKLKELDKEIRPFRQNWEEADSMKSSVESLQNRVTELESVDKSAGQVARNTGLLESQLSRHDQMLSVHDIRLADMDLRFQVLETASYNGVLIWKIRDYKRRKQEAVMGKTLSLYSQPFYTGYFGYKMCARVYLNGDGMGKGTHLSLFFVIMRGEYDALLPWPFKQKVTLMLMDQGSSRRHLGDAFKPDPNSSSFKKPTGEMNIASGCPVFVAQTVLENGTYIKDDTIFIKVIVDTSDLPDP
UniProt Q5T7W7: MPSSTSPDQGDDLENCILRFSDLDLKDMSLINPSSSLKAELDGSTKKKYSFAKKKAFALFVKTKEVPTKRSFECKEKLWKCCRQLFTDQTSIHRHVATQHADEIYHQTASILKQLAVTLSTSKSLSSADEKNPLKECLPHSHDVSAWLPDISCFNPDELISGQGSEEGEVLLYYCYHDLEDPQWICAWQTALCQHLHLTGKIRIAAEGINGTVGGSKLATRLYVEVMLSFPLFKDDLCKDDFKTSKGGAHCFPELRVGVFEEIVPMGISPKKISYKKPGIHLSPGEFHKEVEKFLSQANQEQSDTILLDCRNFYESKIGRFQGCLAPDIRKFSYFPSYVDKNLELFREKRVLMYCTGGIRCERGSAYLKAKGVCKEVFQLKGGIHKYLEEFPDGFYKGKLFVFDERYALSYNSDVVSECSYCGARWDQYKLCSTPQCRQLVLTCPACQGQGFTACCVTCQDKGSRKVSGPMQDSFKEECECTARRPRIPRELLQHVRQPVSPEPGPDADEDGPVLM
UniProt P14373: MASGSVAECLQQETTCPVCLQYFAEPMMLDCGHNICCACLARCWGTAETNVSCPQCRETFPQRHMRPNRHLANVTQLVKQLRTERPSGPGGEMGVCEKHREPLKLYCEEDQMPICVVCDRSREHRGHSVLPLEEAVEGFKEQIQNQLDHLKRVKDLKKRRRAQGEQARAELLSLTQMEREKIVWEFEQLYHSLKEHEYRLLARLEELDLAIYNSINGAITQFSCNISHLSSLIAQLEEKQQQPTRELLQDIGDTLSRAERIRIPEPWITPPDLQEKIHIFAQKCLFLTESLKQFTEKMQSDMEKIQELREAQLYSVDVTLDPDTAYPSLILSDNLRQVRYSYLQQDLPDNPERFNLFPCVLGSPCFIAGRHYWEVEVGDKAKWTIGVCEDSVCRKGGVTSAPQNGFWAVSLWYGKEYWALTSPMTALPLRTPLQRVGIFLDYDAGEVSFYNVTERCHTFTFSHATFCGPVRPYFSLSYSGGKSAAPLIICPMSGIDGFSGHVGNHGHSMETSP
UniProt Q9H2D6: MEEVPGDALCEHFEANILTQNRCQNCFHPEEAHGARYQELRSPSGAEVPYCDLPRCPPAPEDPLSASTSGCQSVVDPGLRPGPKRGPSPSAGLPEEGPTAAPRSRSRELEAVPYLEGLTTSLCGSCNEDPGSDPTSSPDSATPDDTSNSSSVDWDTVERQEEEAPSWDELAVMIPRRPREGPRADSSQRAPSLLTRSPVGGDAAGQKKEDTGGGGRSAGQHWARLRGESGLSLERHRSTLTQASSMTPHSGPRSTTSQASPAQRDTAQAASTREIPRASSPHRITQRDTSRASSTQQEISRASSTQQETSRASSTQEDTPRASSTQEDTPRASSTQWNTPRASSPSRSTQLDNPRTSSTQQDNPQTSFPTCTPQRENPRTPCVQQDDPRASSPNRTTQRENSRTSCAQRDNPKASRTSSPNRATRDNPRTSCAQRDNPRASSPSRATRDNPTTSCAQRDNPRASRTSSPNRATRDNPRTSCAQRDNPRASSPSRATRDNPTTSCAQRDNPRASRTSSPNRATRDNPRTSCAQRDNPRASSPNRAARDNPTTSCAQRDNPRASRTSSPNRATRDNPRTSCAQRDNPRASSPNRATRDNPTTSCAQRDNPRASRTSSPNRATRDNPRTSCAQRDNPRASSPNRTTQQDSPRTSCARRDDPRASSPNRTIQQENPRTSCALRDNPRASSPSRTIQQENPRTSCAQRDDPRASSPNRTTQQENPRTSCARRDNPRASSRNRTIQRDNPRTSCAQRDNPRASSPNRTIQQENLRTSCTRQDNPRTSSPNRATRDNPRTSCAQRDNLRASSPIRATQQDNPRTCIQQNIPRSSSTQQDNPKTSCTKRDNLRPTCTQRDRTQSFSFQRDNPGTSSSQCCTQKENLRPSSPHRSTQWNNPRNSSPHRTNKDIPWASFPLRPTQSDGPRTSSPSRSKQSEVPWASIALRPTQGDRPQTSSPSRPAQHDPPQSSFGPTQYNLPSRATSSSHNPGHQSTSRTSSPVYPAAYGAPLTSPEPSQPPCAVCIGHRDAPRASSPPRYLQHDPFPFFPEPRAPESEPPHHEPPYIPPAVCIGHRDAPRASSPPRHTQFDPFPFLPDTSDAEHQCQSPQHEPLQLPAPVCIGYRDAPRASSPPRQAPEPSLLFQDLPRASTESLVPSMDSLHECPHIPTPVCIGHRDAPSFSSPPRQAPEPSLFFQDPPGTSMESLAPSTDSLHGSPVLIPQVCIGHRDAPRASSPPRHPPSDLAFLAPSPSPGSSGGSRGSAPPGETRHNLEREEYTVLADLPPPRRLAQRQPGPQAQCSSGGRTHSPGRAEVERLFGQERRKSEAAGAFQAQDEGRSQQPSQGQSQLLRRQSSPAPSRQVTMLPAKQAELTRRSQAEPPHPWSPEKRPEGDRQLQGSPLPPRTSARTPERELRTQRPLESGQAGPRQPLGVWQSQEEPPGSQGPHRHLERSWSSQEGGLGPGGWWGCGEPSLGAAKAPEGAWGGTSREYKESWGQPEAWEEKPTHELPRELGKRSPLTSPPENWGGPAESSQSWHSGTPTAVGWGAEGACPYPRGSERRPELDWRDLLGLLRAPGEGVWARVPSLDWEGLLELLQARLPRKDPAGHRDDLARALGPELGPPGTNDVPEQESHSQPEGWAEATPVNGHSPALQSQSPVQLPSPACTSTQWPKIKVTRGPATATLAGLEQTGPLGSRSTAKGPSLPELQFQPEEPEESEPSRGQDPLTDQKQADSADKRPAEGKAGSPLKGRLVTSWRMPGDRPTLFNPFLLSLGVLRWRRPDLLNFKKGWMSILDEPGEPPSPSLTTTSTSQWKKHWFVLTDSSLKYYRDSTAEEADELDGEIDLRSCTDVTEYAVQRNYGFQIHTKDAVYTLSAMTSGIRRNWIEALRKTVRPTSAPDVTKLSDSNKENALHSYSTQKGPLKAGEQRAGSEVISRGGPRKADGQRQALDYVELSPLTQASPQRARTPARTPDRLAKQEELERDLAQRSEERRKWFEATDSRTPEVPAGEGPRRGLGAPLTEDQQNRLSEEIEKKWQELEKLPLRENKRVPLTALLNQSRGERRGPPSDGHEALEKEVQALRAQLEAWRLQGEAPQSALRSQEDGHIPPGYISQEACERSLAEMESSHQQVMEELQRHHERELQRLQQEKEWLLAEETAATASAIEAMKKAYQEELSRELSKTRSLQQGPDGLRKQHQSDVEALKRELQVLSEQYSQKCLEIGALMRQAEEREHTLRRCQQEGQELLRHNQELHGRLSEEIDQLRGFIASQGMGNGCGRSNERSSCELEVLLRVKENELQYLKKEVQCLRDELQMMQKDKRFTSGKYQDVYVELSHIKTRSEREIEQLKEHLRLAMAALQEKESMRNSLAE

The list shows a part of the results.

Compound in one assay: COc1cc2ncnc(Nc3ccc(F)c(Cl)c3)c2cc1OCCCN1CCOCC1 [gefitinib]
The assay can be described thus: log2 fold change, soluble protein after heating vs DMSO (PISA); higher = thermal stabilisation; K562 lysate, 10 uM; active = over 0.2 and 3.5 SD of the protein, either way, in both replicates (recomputed). The method in brief: (§1)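 Log-two fold change in thermal stability relative to solvent controls is reported from duplicates. For each sample, crude K562 extract from dounce-homogenised pellets in PBS pH 7.4 with 1 mM MgCl2, at 1 mg/mL protein, was treated with 10 μM compound for 30 min. Aliquots heated for 3 min across 48°C-58°C were pooled, brought to 0.5% NP-40 at 4°C and cleared at 21,000xg for 90 min. The supernatant was quantified by TMTpro 16plex LC-MS/MS with channel sums equalised.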
For the target TRMT2B (UniProt Q96GJ1), the log2 fold change was inactive: 0.041.
As to TSC1 (UniProt Q92574), the log2 fold change is inactive: -0.037.
Take TTC26: the log2 fold change was inactive: 0.122.
With TSPYL2 (UniProt Q9H2G4), the log2 fold change is inactive: -0.032.
Still for that read-out and setting: the result for TRIM58 (UniProt Q8NG06) reads inactive: 0.027; that for TSPYL1 (UniProt Q9H0U9), inactive: 0.03; that for TRRAP (UniProt Q9Y4A5), inactive: -0.031.
In the case of TRNT1 (UniProt Q96Q11), the log2 fold change was inactive: -0.008.
With TRIP10 (UniProt Q15642), the log2 fold change is inactive: -0.027.
As to TRIAP1 (UniProt O43715), the log2 fold change was inactive: -0.08.
In the case of TSC22D2 (UniProt O75157), the log2 fold change was inactive: -0.006.
Take TRIM47 (UniProt Q96LD4): the log2 fold change is inactive: -0.014.
For TRPT1 isoform 4 (UniProt Q86TN4), the log2 fold change was inactive: -0.035.
In the case of TRIP10 isoform 2 (UniProt Q15642), the log2 fold change is inactive: -0.132.
For the target TSEN15, A0A2U3TZM3, the log2 fold change is inactive: 0.044.
On to TTMP isoform 3 (UniProt Q5BVD1), for which the log2 fold change is inactive: 0.02.
Take TRAF3 (UniProt Q13114): the log2 fold change is inactive: 0.102.
For the target TRIM65 (UniProt Q6PJ69), the log2 fold change is inactive: 0.003.
Take TSTD2 (UniProt Q5T7W7): the log2 fold change was inactive: -0.043.
In the case of TTC21B (UniProt Q7Z4L5), the log2 fold change is inactive: 0.083.
TRPM7 (UniProt Q96QT4): the log2 fold change was inactive: 0.085.
On to TRAF7 (UniProt Q6Q0C0), for which the log2 fold change is inactive: -0.099.
Turning to TSPAN3 (UniProt O60637), the log2 fold change was inactive: 0.049.
As for TRIM27 (UniProt P14373), the log2 fold change is inactive: 0.119.
As to TRIO (UniProt O75962), the log2 fold change was inactive: -0.028.

Compound in another assay: CS(=O)(=O)CCNCc1ccc(-c2ccc3ncnc(Nc4ccc(OCc5cccc(F)c5)c(Cl)c4)c3c2)o1 [lapatinib]
The assay is described as above. A digest of the protocol: as §1
For the target TRMT2B (UniProt Q96GJ1), the log2 fold change is inactive: -0.122.
Consider TSC1 (UniProt Q92574), for which the log2 fold change was inactive: -0.032.
On the same count and under the same terms, the result for TSPYL1 (UniProt Q9H0U9) reads inactive: -0.078.
On the same count and under the same terms, under TRRAP (UniProt Q9Y4A5) stands inactive: -0.034; under TRPS1 isoform 2 (UniProt Q9UHF7), inactive: 0.072.
Still for that read-out and setting: under TRNT1 (UniProt Q96Q11) stands inactive: 0.01; under TRIP10 (UniProt Q15642), inactive: -0.004.
In the case of TRIAP1 (UniProt O43715), the log2 fold change was inactive: 0.071.
As for TSC22D2 (UniProt O75157), the log2 fold change was inactive: -0.015.
With TRIM47 (UniProt Q96LD4), the log2 fold change is inactive: 0.114.
For TRPT1 isoform 4 (UniProt Q86TN4), the log2 fold change is inactive: -0.008.
Take TRIP10 isoform 2 (UniProt Q15642): the log2 fold change was inactive: 0.015.
With TSEN15, A0A2U3TZM3, the log2 fold change was inactive: 0.074.
Same read-out and setting: the result for TTMP isoform 3 (UniProt Q5BVD1) reads inactive: -0.1; that for TRAF3 (UniProt Q13114), inactive: -0.023; that for TRIM65 (UniProt Q6PJ69), inactive: 0.028.
Consider TSTD2 (UniProt Q5T7W7), for which the log2 fold change is inactive: -0.082.
Regarding TRPM7 (UniProt Q96QT4), the log2 fold change is inactive: -0.211.
Take TRIOBP (UniProt Q9H2D6): the log2 fold change was inactive: 0.11.
With TSPAN3 (UniProt O60637), the log2 fold change is inactive: -0.013.
For the target TRIO (UniProt O75962), the log2 fold change was inactive: -0.169.

Compound in the next assay: CS(=O)(=O)N1CCN(Cc2cc3nc(-c4cccc5[nH]ncc45)nc(N4CCOCC4)c3s2)CC1 [pictilisib]
The description is as above. The method in brief: as §1
In the case of TRMT2B (UniProt Q96GJ1), the log2 fold change is inactive: -0.055.
Turning to TSC1 (UniProt Q92574), the log2 fold change is inactive: 0.049.
On the same count and under the same terms, under TTLL12 (UniProt V9GY16) stands inactive: 0.058; under TRIM58 (UniProt Q8NG06), inactive: -0.05.
Consider TSPYL1 (UniProt Q9H0U9), for which the log2 fold change was inactive: -0.032.
TRRAP (UniProt Q9Y4A5): the log2 fold change was inactive: -0.057.
Regarding TRPM4 (UniProt Q8TD43), the log2 fold change was inactive: -0.085.
Take TRNT1 (UniProt Q96Q11): the log2 fold change is inactive: -0.021.
As for TRIP10 (UniProt Q15642), the log2 fold change was inactive: 0.042.
On the same count and under the same terms, under TSC22D2 (UniProt O75157) stands inactive: -0.021.
As to TRPT1 isoform 4 (UniProt Q86TN4), the log2 fold change is inactive: 0.371.
Regarding TRIP10 isoform 2 (UniProt Q15642), the log2 fold change was inactive: 0.074.
TTMP isoform 3 (UniProt Q5BVD1): the log2 fold change is inactive: 0.013.
For the target TRAF3 (UniProt Q13114), the log2 fold change was inactive: 0.056.
For the target TRIM65 (UniProt Q6PJ69), the log2 fold change is inactive: -0.035.
Consider TSTD2 (UniProt Q5T7W7), for which the log2 fold change was inactive: -0.062.
As to TTC21B (UniProt Q7Z4L5), the log2 fold change is inactive: -0.022.
For the target TRIOBP (UniProt Q9H2D6), the log2 fold change is inactive: 0.044.
As to TRIM27 (UniProt P14373), the log2 fold change is inactive: 0.103.
Same read-out and setting: under TRIO (UniProt O75962) stands inactive: 0.021.

Compound in the next assay: C[C@@H](Oc1cc(-c2cnn(C3CCNCC3)c2)cnc1N)c1c(Cl)ccc(F)c1Cl [crizotinib]
Described as above. A digest of the protocol:
as §1
On to TRMT2B (UniProt Q96GJ1), for which the log2 fold change was inactive: -0.013.
The same measure, in the same setting: the result for TSC1 (UniProt Q92574) reads inactive: -0.036; that for TTLL12 (UniProt V9GY16), inactive: 0.072; that for TSPYL2 (UniProt Q9H2G4), inactive: -0.144.
Consider TRIM58 (UniProt Q8NG06), for which the log2 fold change is inactive: 0.036.
As for TSPYL1 (UniProt Q9H0U9), the log2 fold change was inactive: -0.054.
Take TRRAP (UniProt Q9Y4A5): the log2 fold change was inactive: -0.035.
For TRPM4 (UniProt Q8TD43), the log2 fold change is inactive: 0.055.
Turning to TRPS1 isoform 2 (UniProt Q9UHF7), the log2 fold change is inactive: -0.306.
For the target TRNT1 (UniProt Q96Q11), the log2 fold change is inactive: -0.036.
Same read-out and setting: under TRIP10 (UniProt Q15642) stands inactive: -0.083.
As for TRIAP1 (UniProt O43715), the log2 fold change is inactive: -0.051.
Turning to TSC22D2 (UniProt O75157), the log2 fold change was inactive: -0.013.
On to TRPT1 isoform 4 (UniProt Q86TN4), for which the log2 fold change was inactive: -0.032.
Consider TRIP10 isoform 2 (UniProt Q15642), for which the log2 fold change was inactive: 0.114.
As to TTMP isoform 3 (UniProt Q5BVD1), the log2 fold change was inactive: -0.241.
TRAF3 (UniProt Q13114): the log2 fold change was inactive: -0.042.
Take TRIM65 (UniProt Q6PJ69): the log2 fold change was inactive: -0.046.
For TRPM7 (UniProt Q96QT4), the log2 fold change was inactive: 0.14.
On to TRAF7 (UniProt Q6Q0C0), for which the log2 fold change was inactive: -0.01.
Turning to TSKS (UniProt Q9UJT2), the log2 fold change was inactive: -0.009.
Take TRIOBP (UniProt Q9H2D6): the log2 fold change was inactive: 0.02.
On to TRIM27 (UniProt P14373), for which the log2 fold change was inactive: -0.039.
As to TRIO (UniProt O75962), the log2 fold change was inactive: -0.386.
